The results are deposited in PubChem (AID504749; NCATS, 2011).

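Malaria parasite (P. falciparum) lines kept in red blood cells; parasite DNA is measured by SYBR Green fluorescence after lysis, 72 h after compound addition.
Each compound was titrated across a series from about 0.000037 to 29 µM.
The number is the fitted AC50, the concentration giving a half-maximal change in signal; a lower value means higher potency, whether the curve shows a decrease or an increase.
Calls follow the curve class and fit quality: every row here is inconclusive, covering signal-raising curves and weak, poorly fitted, partial or highest-dose-only inhibition curves.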

Values are in µM.
Every entry below has the call inconclusive.
These entries are mostly ones the record files as inconclusive; other results of the assay are not listed here.
A potency from a partial, single-point or poor curve is only a rough figure.
Some entries filed as inconclusive have a full curve.
The first word of each remark tells which way the curve ran; it can be opposite to the aim of the assay.

For COc1ccc(C(=O)/C(Br)=C/C(=O)O)cc1 [DIV17] the result was potency 12 µM (inhibitor, single point). COc1ccc(C(=O)/C(Br)=C/C(=O)O)cc1 [ATS95] gave potency 12.59 µM (inhibitor, single point). COc1ccc(C(=O)/C(Br)=C/C(=O)O)cc1 [CP191] read potency 12.59 µM (inhibitor, single point). Result for COc1ccc(C(=O)/C(Br)=C/C(=O)O)cc1 [CP215] was potency 19.01 µM (inhibitor, single point). Cc1cc(C)c(/C=C2\C(=O)Nc3ccccc32)[nH]1 [ICS] read potency 12.59 µM (inhibitor, partial curve).

With CC[C@H]1CN2CCc3cc(OC)c(OC)cc3[C@H]2C[C@@H]1C[C@@H]1NCCc2cc(OC)c(OC)cc21 [CP191] the assay gave potency 0.3981 µM (activator). With NC1=NC(S)C2N=CN=C2N1 (centres unmarked) [CP256] the assay gave potency 10 µM (inhibitor, single point). NC1=NC(S)C2N=CN=C2N1 (centres unmarked) [CP252] read potency 5.623 µM (inhibitor, partial curve). With NC1=NC(S)C2N=CN=C2N1 (centres unmarked) [7G8] the assay gave potency 15.85 µM (inhibitor, partial curve, poor fit). NC1=NC(S)C2N=CN=C2N1 (centres unmarked) [CP191] read potency 11.22 µM (inhibitor, single point).

CCCCC[C@H](O)/C=C/[C@@H]1[C@@H](C/C=C\CCCC(=O)O)[C@@H](O)C[C@H]1O [CP335] read potency 4.256 µM (inhibitor, single point). CCCCC[C@H](O)/C=C/[C@@H]1[C@@H](C/C=C\CCCC(=O)O)[C@@H](O)C[C@H]1O [PC26] read potency 10.69 µM (inhibitor, single point). CCCCC[C@H](O)/C=C/[C@@H]1[C@@H](C/C=C\CCCC(=O)O)[C@@H](O)C[C@H]1O [7G8] gave potency 17.78 µM (inhibitor, single point). O=C1C(=O)c2ccccc2C(O)=C1C1CCC(c2ccc(Cl)cc2)CC1 (centres unmarked) [CP262] gave potency 0.0045 µM (inhibitor, full curve). For O=C1C(=O)c2ccccc2C(O)=C1C1CCC(c2ccc(Cl)cc2)CC1 (centres unmarked) [CP215] the result was potency 0.0051 µM (activator).

Result for O=C1C(=O)c2ccccc2C(O)=C1C1CCC(c2ccc(Cl)cc2)CC1 (centres unmarked) [CP297] was potency 0.0051 µM (activator). For COc1cc2c(cc1OC)-c1cc(=Nc3c(C)cc(C)cc3C)n(C)c(=O)n1CC2 [CP211] the result was potency 0.0953 µM (inhibitor, full curve, poor fit).

The first 2 entries again:

| Compound | tested on / at | potency (µM) | remark |
|---|---|---|---|
| `COc1ccc(C(=O)/C(Br)=C/C(=O)O)cc1` | DIV17 | 12 | inhibitor, single point |
| `COc1ccc(C(=O)/C(Br)=C/C(=O)O)cc1` | ATS95 | 12.59 | inhibitor, single point |